Data as given in PubChem BioAssay AID1508597 (Cure First, 2020).
Test: 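Genes whose silencing sensitises or protects ovarian cancer cells against rucaparib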 (primary screen). System: human ovarian carcinoma lines grown from tumours: OCI-P5x (papillary serous) and OCI-C5x (clear cell). Reagents: siRNA pool against human genes, 1.25 pmol siRNA per well. Duration: 72 h or 96 h, depending on the cell culture. Treatment: rucaparib 20 µM (about IC30) or vehicle, present until read-out. Measurement: 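Luminescent ATP-based viability assay read 72 or 96 h after transfection, depending on culture, given as normalised percent viability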. Reading the numbers: viability, normalised: higher = more viable cells remaining. Rule for the call: 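Active when normalised viability falls below 80 percent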. Calls: active = viability under 80%; inactive = viability 80% or more.
In all, the deposit lists about 2,100 reagents; this is an unselected part. 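Calls flag viability under 80% in either arm, not effects specific to rucaparib; the reference for percent is not stated.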 The record does not give: the 100% reference.

PFKFB1, rucaparib or vehicle Rucaparib, cell line OCI-C5x (clear cell), technical replicate 1 showed viability, normalised (%) = 49.4; active.
With PFKFB1, rucaparib or vehicle Rucaparib, cell line OCI-C5x (clear cell), technical replicate 2, the entry reads viability, normalised (%) = 69.6; active.
With PFKFB1, rucaparib or vehicle Rucaparib, cell line OCI-C5x (clear cell), technical replicate 3 the deposit lists viability, normalised (%) = 39.2; active.
For PFKFB1, rucaparib or vehicle Rucaparib, cell line OCI-P5x (serous), technical replicate 1, the entry reads viability, normalised (%) = 95.6; inactive.
With PFKFB1, rucaparib or vehicle Rucaparib, cell line OCI-P5x (serous), technical replicate 2, the values are viability, normalised (%) = 102; inactive.
With PFKFB1, rucaparib or vehicle Rucaparib, cell line OCI-P5x (serous), technical replicate 3, the entry reads viability, normalised (%) = 102; inactive.
PFKFB1, rucaparib or vehicle Vehicle, cell line OCI-C5x (clear cell), technical replicate 1 showed viability, normalised (%) = 68.5; active.
For PFKFB1, rucaparib or vehicle Vehicle, cell line OCI-C5x (clear cell), technical replicate 2 the deposit lists viability, normalised (%) = 58; active.
With PFKFB1, rucaparib or vehicle Vehicle, cell line OCI-C5x (clear cell), technical replicate 3, the entry reads viability, normalised (%) = 56.4; active.
For PFKFB1, rucaparib or vehicle Vehicle, cell line OCI-P5x (serous), technical replicate 1, the entry reads viability, normalised (%) = 109; inactive.
PFKFB1, rucaparib or vehicle Vehicle, cell line OCI-P5x (serous), technical replicate 2 showed viability, normalised (%) = 99.7; inactive.
PFKFB1, rucaparib or vehicle Vehicle, cell line OCI-P5x (serous), technical replicate 3 gave viability, normalised (%) = 91.6; inactive.
